Article PMC12796254
No constants are given. Whether binding was seen depends on the method and setting. In cells and extracts the contact can be indirect. Some results given as binding are weak or reduced against the parent protein; the word gives no strength. For part of these data: Tags and fused reporters may be left off the sequences shown.

Sequences of proteins named here, by UniProt entry; tags and fusion partners are left off. A change or cut given only in a name is not applied to a line headed by its entry. Residues count along the entry.
UniProt P17482: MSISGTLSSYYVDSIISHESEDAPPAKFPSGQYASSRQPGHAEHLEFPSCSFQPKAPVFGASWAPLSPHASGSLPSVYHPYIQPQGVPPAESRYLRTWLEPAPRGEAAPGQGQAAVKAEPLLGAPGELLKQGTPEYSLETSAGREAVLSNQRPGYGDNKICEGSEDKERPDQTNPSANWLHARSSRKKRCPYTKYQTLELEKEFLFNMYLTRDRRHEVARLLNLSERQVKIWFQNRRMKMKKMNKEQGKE
GST-HOXB9 1-184 segment: residues 1-184 of P17482
UniProt P54368: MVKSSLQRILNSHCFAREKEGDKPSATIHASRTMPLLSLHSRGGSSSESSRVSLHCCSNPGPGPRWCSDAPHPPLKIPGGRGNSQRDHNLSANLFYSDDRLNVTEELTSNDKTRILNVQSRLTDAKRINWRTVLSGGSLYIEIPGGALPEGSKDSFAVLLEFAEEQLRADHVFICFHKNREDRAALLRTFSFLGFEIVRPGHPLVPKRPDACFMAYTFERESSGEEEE

B1: Ornithine Decarboxylase 1 (ODC1), endogenous (enzyme, UniProt P11926 1-461)
chain: MNNFGNEEFDCHFLDEGFTAKDILDQKINEVSSSDDKDAFYVADLGDILKKHLRWLKALPRVTPFYAVKCNDSKAIVKTLAATGTGFDCASKTEIQLVQSLGVPPERIIYANPCKQVSQIKYAANNGVQMMTFDSEVELMKVARAHPKAKLVLRIATDDSKAVCRLSVKFGATLRTSRLLLERAKELNIDVVGVSFHVGSGCTDPETFVQAISDARCVFDMGAEVGFSMYLLDIGGGFPGSEDVKLKFEEITGVINPALDKYFPSDSGVRIIAEPGRYYVASAFTLAVNIIAKKIVLKEQTGSDDEDESSEQTFMYYVNDGVYGSFNCILYDHAHVKPLLQKRPKPDEKYYSSSIWGPTCDGLDRIVERCDLPEMHVGDWMLFENMGAYTVAAASTFNGFQRPTIYYVMSGPAWQLMQQFQNPDFPPEVEEQDASTLPVSCAWESGMKRHRAACASASINV
B2: E3 ligase Praja2, endogenous (enzyme, UniProt O43164 1-708)
chain: MSQYTEKEPAAMDQESGKAVWPKPAGGYQTITGRRYGRRHAYVSFKPCMTRHERSLGRAGDDYEVLELDDVPKENSSGSSPLDQVDSSLPSEPIFEKSETEIPTCGSALNQTTESSQSFVAVHHSEEGRDTLGSSTNLHNHSEGEYIPGACSASSVQNGIALVHTDSYDPDGKHGEDNDHLQLSAEVVEGSRYQESLGNTVFELENREAEAYTGLSPPVPSFNCEVRDEFEELDSVPLVKSSAGDTEFVHQNSQEIQRSSQDEMVSTKQQNNTSQERQTEHSPEDAACGPGHICSEQNTNDREKNHGSSPEQVVRPKVRKLISSSQVDQETGFNRHEAKQRSVQRWREALEVEESGSDDLLIKCEEYDGEHDCMFLDPPYSRVITQRETENNQMTSESGATAGRQEVDNTFWNGCGDYYQLYDKDEDSSECSDGEWSASLPHRFSGTEKDQSSSDESWETLPGKDENEPELQSDSSGPEEENQELSLQEGEQTSLEEGEIPWLQYNEVNESSSDEGNEPANEFAQPAFMLDGNNNLEDDSSVSEDLDVDWSLFDGFADGLGVAEAISYVDPQFLTYMALEERLAQAMETALAHLESLAVDVEVANPPASKESIDGLPETLVLEDHTAIGQEQCCPICCSEYIKDDIATELPCHHFFHKPCVSIWLQKSGTCPVCRRHFPPAVIEASAAPSSEPDPDAPPSNDSIAEAP
B3: Flag-ODC1 (in 293T cells) (enzyme, UniProt P11926 1-461)
chain: B1 chain

Key:
[1] = target: T1, Flag-ODC1 (in Ishikawa or AN3CA cells) (UniProt P11926); test: co-IP; Ishikawa or AN3CA cells transfected with Flag-tagged plasmids (some with GFP-HOXB9 or HA-Ub; with or without OA 30 µM, putrescine 50 µM, MG132); lysate in weak RIPA buffer (1x PBS, pH 7.4, 1% NP40); anti-Flag affinity gel overnight at 4 °C; blot for the endogenous partner
T1 sequence: B1 chain

[2] = target: T2, Ornithine Decarboxylase 1 (ODC1), endogenous (human (endogenous in Ishikawa and AN3CA)) (UniProt P11926); test: as above
T2 sequence: B1 chain

[3] = target: Homeobox B9 (HOXB9), endogenous (human (endogenous in Ishikawa and AN3CA)) (UniProt P17482); test: co-IP; endogenous proteins; Ishikawa (24 h OA) or AN3CA (48 h OA, 30 µM) lysate in weak RIPA buffer (1x PBS, pH 7.4, 1% NP40); anti-HOXB9 overnight at 4 °C, protein A or G agarose; blot anti-ODC1
[4] = target: Flag-HOXB9 (in Ishikawa or AN3CA cells) (UniProt P17482); test: co-IP; Ishikawa or AN3CA cells transfected with Flag-tagged plasmids (some with GFP-HOXB9 or HA-Ub; with or without OA 30 µM, putrescine 50 µM, MG132); lysate in weak RIPA buffer (1x PBS, pH 7.4, 1% NP40); anti-Flag affinity gel overnight at 4 °C; blot for the endogenous partner
Flag-OAZ1 = Flag-OAZ1 (UniProt P54368); test: as above
GST-HOXB9 1-184 segment = GST-HOXB9 1-184 segment (UniProt P17482); test: pull-down; GST fusion proteins from Rosetta bacteria held on Glutathione-Sepharose 4B beads; incubated overnight with pre-cleared lysates of 293T cells transfected with Flag-tagged plasmids; washed with PBS; blot anti-Flag; only the target purified

Molecule | binding [1] | binding [4] | other results
GFP-HOXB9 (from UniProt P17482 1-250) | binds |  | binding [2]: binds
ornithine decarboxylase antizyme 1 (OAZ1), endogenous (from UniProt P54368 1-228) | binds |  | 
Homeobox B9 (HOXB9), endogenous (from UniProt P17482 1-250) | binds |  | 
B1 |  | binds | binding [3]: binds; binding (Flag-OAZ1): binds
B2 |  | binds | 
B3 |  |  | binding (GST-HOXB9 1-184 segment): binds
